Experimental findings from publication PMC4742184 are described below.

Protein sequences, listed by entry. Tags and fused reporters are not part of them.
UniProt Q9UBN7: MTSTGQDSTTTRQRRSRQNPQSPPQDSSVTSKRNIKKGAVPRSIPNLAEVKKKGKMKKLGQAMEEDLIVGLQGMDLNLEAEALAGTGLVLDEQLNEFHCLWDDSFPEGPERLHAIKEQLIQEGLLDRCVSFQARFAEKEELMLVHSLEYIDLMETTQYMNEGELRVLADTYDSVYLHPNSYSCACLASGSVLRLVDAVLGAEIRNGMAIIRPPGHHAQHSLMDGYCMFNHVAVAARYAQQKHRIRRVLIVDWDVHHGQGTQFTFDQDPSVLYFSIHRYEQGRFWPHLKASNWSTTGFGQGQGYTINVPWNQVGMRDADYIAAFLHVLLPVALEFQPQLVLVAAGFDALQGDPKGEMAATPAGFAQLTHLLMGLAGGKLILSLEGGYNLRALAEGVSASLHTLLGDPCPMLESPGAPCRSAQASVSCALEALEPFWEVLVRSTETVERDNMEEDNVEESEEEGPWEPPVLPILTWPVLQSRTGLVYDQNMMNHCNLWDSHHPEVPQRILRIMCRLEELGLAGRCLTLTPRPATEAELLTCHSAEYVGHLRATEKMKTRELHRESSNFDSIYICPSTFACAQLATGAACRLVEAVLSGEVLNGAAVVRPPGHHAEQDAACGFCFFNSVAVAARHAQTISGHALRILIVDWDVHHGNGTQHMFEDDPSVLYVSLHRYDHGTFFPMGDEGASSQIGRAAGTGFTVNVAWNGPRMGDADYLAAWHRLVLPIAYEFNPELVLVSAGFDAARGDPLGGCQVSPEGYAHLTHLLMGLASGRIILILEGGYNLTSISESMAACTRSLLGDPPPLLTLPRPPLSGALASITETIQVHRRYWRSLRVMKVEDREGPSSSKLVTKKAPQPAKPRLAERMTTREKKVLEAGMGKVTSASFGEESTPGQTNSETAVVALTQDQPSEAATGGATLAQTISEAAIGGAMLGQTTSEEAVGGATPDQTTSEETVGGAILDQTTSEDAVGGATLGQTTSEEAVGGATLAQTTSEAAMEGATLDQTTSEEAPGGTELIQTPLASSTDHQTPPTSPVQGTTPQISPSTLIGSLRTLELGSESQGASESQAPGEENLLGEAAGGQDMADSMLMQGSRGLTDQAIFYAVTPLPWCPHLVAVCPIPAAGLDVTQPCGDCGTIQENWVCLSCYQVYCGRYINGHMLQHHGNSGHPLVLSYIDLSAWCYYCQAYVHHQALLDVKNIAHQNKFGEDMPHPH
UniProt O94811: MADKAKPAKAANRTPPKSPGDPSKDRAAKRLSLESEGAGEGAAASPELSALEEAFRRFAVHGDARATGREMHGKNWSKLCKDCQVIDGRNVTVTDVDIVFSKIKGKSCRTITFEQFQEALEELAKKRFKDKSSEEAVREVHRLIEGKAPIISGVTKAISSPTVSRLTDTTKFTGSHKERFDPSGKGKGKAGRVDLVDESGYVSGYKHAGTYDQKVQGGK

No constants are given. Whether binding was seen depends on the method and setting. In cells and extracts the contact can be indirect. Some results given as binding are weak or reduced against the parent protein; the word gives no strength.

This test concerns the target HDAC6 (human (endogenous in HTC/C3)) (UniProt Q9UBN7). Put plainly: co-IP; endogenous proteins from HTC/C3 lysate (50 mM Tris-HCl pH 7.4, 150 mM NaCl, 1% Triton X-100), ~2 ug primary antibody overnight at 4°C, Protein G sepharose, western blot; cells treated with 10 uM SP600125 or DMSO for 72 hours.

Take TPPP1 (from UniProt O94811 1-219): the binding result was “binds”.
